# This is one part of the list.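 How the source made its calls: active = dose-dependent thermal stabilisation significant by F-test of dose-response against flat model at 10% FDR; inactive = not significant.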
# Amino acid sequences for entries named in this document (tags omitted). A change or cut given only in a name is not applied to a line headed by its entry.
# UniProt O95208: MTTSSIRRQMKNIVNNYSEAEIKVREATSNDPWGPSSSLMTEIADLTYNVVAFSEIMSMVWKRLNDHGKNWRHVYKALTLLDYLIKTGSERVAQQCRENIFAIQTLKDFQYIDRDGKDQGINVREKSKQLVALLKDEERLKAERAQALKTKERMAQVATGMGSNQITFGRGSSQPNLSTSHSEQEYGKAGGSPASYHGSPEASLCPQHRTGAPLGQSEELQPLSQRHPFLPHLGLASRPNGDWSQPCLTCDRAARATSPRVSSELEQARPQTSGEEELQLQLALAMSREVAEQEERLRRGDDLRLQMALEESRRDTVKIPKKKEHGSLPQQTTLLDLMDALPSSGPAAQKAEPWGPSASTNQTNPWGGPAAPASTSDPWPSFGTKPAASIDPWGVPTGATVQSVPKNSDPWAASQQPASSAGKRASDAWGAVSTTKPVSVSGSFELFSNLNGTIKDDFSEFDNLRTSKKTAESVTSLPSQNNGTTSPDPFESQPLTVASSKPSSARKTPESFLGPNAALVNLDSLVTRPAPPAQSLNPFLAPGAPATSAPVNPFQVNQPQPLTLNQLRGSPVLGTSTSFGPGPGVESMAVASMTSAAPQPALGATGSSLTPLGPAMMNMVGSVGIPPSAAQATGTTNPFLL
# UniProt P47813, whole entry: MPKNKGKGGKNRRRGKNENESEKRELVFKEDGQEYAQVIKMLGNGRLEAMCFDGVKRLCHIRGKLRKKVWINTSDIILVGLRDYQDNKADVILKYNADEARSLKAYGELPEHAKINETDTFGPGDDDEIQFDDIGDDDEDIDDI
# UniProt Q86X53: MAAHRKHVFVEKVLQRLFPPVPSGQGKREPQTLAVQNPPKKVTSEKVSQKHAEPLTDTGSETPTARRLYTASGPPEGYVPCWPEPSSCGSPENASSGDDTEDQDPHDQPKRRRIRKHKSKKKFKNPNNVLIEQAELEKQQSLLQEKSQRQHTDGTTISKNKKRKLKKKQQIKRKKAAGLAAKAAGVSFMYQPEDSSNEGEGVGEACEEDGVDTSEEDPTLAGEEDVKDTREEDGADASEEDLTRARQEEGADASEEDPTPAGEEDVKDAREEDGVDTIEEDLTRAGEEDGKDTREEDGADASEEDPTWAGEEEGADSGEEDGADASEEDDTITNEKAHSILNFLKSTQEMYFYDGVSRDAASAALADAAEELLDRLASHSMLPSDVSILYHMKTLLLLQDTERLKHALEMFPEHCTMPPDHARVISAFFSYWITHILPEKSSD
# UniProt Q9NZ08: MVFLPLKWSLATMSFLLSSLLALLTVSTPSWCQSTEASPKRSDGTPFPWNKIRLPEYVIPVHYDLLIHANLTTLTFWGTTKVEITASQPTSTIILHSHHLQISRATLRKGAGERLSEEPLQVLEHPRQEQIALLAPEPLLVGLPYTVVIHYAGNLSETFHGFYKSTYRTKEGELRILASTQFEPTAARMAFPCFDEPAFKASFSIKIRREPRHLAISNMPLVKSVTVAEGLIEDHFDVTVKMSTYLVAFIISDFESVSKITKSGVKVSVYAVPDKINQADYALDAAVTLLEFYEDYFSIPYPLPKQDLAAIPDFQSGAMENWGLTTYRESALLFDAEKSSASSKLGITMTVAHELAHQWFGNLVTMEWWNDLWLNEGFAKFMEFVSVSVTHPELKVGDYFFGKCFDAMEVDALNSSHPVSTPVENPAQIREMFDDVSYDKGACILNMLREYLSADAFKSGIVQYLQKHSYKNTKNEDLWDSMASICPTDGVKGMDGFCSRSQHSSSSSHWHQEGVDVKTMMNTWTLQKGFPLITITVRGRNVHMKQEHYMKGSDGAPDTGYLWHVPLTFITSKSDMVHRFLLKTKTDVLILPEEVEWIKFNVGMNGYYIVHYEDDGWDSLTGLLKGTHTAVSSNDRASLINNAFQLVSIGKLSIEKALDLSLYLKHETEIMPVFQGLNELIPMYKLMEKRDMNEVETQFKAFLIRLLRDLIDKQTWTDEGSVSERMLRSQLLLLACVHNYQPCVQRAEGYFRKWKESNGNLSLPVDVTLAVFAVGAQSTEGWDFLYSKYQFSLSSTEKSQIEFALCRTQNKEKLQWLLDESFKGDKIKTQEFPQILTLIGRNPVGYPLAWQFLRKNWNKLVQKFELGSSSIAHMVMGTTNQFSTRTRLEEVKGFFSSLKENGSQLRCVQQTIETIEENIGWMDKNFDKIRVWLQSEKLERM
# UniProt Q96EB1: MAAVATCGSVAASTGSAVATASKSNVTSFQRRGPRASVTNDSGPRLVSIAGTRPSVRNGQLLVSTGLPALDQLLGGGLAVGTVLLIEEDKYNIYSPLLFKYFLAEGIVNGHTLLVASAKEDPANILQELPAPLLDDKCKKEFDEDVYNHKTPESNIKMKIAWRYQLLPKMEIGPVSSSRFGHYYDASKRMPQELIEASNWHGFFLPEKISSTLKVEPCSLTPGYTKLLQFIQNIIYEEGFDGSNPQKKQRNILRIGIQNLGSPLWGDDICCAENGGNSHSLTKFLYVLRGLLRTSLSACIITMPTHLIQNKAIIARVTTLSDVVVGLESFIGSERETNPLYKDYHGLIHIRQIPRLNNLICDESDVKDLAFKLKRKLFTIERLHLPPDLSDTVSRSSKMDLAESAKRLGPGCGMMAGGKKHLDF
# UniProt Q8IY81: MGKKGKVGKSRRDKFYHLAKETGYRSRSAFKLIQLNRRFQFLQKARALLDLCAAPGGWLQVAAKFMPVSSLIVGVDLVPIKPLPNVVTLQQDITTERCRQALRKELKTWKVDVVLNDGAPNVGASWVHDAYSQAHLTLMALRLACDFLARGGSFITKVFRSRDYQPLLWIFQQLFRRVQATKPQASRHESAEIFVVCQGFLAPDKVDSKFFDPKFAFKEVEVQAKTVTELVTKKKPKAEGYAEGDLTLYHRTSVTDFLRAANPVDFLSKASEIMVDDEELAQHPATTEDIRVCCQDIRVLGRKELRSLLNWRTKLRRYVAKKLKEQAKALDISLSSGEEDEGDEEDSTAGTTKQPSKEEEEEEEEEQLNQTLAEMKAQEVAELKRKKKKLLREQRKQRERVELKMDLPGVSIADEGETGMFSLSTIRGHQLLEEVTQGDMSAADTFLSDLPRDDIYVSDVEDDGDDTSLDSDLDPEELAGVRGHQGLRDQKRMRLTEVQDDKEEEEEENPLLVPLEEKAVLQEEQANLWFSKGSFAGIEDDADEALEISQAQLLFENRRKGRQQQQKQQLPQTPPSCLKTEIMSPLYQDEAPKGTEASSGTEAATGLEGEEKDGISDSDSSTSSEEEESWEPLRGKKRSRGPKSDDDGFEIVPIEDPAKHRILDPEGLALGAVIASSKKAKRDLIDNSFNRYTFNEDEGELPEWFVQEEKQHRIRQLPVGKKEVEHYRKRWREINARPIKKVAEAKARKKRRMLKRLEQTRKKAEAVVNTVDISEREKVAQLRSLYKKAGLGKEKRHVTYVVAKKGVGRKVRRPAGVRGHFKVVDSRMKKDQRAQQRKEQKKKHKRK
# UniProt Q9C0B1, whole entry, looked up: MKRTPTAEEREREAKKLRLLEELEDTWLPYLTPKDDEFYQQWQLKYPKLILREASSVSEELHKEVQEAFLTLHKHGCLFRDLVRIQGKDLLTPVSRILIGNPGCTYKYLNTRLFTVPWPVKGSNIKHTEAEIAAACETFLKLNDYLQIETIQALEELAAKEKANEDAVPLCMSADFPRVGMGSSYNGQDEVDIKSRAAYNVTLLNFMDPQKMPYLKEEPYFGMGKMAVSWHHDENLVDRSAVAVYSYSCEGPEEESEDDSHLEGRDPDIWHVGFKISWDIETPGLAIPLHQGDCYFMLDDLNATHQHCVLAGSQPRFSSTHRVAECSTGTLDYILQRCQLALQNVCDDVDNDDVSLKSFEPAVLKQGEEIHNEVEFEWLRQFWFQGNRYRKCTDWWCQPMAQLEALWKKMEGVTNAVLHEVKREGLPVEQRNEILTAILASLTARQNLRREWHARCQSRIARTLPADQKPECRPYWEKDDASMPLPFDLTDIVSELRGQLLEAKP
# UniProt O43414: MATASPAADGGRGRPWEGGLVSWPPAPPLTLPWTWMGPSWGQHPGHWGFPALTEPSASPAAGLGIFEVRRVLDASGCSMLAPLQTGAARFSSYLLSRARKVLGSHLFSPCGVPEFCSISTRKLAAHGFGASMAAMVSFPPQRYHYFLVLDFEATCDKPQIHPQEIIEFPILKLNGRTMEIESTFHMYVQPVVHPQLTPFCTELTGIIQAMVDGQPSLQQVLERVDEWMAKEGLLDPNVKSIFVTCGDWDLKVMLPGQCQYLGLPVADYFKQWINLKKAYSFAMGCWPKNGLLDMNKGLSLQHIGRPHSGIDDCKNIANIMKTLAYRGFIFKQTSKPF
# UniProt Q15369, whole entry: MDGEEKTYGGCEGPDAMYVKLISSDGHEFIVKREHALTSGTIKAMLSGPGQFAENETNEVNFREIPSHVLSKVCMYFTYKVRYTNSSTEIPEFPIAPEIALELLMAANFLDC
# UniProt Q13158: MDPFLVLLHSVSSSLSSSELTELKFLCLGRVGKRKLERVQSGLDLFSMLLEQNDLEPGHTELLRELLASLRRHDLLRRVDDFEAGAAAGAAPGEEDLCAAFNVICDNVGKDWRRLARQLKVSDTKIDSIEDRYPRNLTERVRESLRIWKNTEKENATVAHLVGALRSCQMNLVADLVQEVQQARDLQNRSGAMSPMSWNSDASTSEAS
# UniProt Q9NSI2: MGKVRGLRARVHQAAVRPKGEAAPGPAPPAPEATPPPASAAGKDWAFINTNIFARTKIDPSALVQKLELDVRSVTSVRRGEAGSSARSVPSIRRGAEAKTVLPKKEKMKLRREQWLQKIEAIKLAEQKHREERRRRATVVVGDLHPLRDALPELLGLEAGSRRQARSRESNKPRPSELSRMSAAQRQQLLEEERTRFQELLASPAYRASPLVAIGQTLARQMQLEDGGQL
# UniProt Q00688: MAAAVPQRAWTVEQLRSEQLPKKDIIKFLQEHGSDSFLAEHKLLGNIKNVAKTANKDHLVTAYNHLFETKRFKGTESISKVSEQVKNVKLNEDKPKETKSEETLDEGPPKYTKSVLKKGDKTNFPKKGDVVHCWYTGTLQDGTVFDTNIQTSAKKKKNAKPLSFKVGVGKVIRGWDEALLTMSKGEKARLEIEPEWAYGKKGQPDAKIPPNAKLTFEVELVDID
# UniProt Q96EK7: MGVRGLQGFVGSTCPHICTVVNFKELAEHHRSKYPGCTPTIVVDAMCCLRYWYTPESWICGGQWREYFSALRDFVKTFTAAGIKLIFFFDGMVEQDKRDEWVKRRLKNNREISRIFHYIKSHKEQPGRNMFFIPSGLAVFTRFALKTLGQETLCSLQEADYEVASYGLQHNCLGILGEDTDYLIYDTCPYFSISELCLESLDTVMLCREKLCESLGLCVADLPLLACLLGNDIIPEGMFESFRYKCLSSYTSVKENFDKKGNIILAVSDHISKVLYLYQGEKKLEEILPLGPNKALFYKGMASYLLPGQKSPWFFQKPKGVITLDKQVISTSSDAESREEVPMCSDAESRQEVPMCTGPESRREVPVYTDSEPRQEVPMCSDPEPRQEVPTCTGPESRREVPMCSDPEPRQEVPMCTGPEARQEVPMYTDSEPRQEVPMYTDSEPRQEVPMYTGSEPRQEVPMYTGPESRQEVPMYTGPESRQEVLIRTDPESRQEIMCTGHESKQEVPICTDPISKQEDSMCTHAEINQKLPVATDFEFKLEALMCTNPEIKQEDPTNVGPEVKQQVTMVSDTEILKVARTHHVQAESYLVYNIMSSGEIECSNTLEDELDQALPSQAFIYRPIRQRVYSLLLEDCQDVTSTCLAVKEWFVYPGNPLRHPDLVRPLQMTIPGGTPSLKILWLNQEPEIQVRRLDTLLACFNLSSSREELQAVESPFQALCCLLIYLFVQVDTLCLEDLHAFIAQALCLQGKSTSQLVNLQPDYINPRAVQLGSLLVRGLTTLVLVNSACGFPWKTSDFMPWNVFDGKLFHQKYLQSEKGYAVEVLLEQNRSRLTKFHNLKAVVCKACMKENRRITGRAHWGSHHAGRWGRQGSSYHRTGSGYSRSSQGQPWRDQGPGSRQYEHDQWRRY
# UniProt O15372, whole entry: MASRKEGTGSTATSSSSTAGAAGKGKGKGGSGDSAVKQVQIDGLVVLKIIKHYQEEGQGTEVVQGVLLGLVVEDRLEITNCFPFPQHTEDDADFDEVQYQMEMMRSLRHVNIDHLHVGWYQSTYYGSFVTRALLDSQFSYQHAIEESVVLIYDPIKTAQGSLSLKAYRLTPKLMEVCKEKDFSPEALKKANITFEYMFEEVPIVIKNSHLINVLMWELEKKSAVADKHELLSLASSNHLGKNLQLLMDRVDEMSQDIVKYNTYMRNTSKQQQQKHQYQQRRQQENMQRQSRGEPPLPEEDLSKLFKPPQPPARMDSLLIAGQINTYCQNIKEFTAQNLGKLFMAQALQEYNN
# UniProt Q9Y3D6: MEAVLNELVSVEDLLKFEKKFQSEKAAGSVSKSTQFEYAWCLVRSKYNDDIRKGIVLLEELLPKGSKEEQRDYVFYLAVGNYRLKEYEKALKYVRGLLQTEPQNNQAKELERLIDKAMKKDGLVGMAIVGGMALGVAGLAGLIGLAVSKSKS
# Compound: Nc1nc2c(ncn2[C@@H]2O[C@H](COP(=O)(O)OP(=O)(O)OP(=O)(O)O)[C@@H](O)[C@H]2O)c(=O)[nH]1
# Experiment: dose-dependent thermal stabilisation call (2D-TPP, DLPTP, 10% FDR) (binary (1 = stabilised)); higher = stabilised by the compound
# Conditions: system: Jurkat gel-filtered lysate; concentration range 1-500 µM
row,Target,dose-dependent thermal stabilisation call
1,EHBP1L1 (UniProt Q8N3D4),inactive: 0
2,FNBP4 (UniProt Q8N3X1),inactive: 0
3,EPN2 (UniProt O95208),inactive: 0
4,FOXJ3 (UniProt Q9UPW0),inactive: 0
5,EXOSC9 (UniProt Q06265),inactive: 0
6,EIF1AX (UniProt P47813),inactive: 0
7,ERICH1 (UniProt Q86X53),inactive: 0
8,FOCAD (UniProt Q5VW36),active: 1
9,ERAP1 (UniProt Q9NZ08),inactive: 0
10,FSCN1 (UniProt Q16658),inactive: 0
11,FAM118B (UniProt Q9BPY3),active: 1
12,FASN (UniProt P49327),active: 1
13,FAM192A (UniProt Q9GZU8),inactive: 0
14,FERMT2 (UniProt Q96AC1),inactive: 0
15,FBXO28 (UniProt Q9NVF7),inactive: 0
16,EXOC3 (UniProt O60645),inactive: 0
17,ELP4 (UniProt Q96EB1),inactive: 0
18,FTSJ3 (UniProt Q8IY81),inactive: 0

row,Target,dose-dependent thermal stabilisation call
1,FTO (UniProt Q9C0B1),inactive: 0
2,ERI3 (UniProt O43414),inactive: 0
3,EZH2 (UniProt Q15910),inactive: 0
4,FAM136A (UniProt Q96C01),inactive: 0
5,ELOC (UniProt Q15369),inactive: 0
6,FADD (UniProt Q13158),inactive: 0
7,FLNB (UniProt O75369),inactive: 0
8,EIF6 (UniProt P56537),inactive: 0
9,FAM207A (UniProt Q9NSI2),inactive: 0
10,ELF2 (UniProt Q15723),inactive: 0
11,FAM160B1 (UniProt Q5W0V3),inactive: 0
12,EIF3J (UniProt O75822),inactive: 0
13,ETHE1 (UniProt O95571),inactive: 0
14,FKBP3 (UniProt Q00688),inactive: 0
15,FAM120B (UniProt Q96EK7),active: 1
16,EIF3H (UniProt O15372),inactive: 0
17,FIS1 (UniProt Q9Y3D6),inactive: 0
18,ETS1 (UniProt P14921),inactive: 0

# 2 entries drawn at random from the list so far:
row,Target,dose-dependent thermal stabilisation call
11,FAM118B (UniProt Q9BPY3),active: 1
14,FKBP3 (UniProt Q00688),inactive: 0
